Results published in article PMC10252828.

T1: PSMA4-GFP (20S proteasomal subunit PSMA4 with GFP fused C-terminally) (D. discoideum) (UniProt P34119)
T1 sequence: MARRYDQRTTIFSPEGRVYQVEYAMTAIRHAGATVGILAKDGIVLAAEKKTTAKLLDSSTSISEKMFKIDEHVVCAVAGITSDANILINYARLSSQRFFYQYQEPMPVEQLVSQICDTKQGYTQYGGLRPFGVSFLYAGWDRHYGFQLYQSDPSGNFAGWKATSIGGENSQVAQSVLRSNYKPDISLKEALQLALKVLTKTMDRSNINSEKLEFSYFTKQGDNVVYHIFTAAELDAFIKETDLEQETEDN

B1: Uncharacterized protein Q559T1 (DDB_G0272438), ubiquitinated at K231 (protein, UniProt Q559T1 1-1212)
chain: MNNNLKKLLSKMEIYNNFKIEEKDQEIKIKNNNKNNNNNNNKNNNDDEWFWNVIHNKFLFNKIIQHLKNNDGNDDDYDDYDEDYKDNEDAEPKGEKSIEDINYLNNFKDISSLELIIEKKQWNILKDKIKNNQFIRMEKSSLNILYSICKDKEIFKSLYNNSCLSMEIVDPVFYSAKNNNLISLQLFIEEFNLPIYPSTLEFAIINSSLKTIQFLIESILNRNLSIDSSFKERSLICSFKNYSNNLKSDSVITEYLLENKELLLANSIDIIKIPIEKCLKLKKLKTKQLLFNYGFIDFNHSIPILKEWLITNYNVLSILDLCFSINILLNCDKQCVDLKNAPQFSKVIESIRERVEQGPITDDEHSNFNLLLKGRLIQLIRVDELFLKFLNEFGFEKGVHSLAYCPMVMVYQYTFQSFNIHGLTHLSHTQTDVPHPQSNPHFKPNMSTLTDPKRILNFIKFYFSSQNKVIYNGWEEISKFCLLNCSIEILNEIIAIEGYPIKSFLIPDIQFKQFSKYQWFIESIVVPFGLKLHKMAMYNSYFQTNQVSKDYYYREIDEKVLISIEKCNEIDFIDYYRNYFQLGNDNVSNIKYKKLIGGNGFFTIINSIECARYCCEKFKTIPKDLIYYNLIVKTILTSNINKMKSIDTYDNCSLNYFKGYFNLNCGSIGTENIIKLFNYLNSSGFKSFSKICGLYYLLYSLIKSYSISYDNSNNNNRHHDNNNNNSFDIVYKIFSNLSINQFPKCFMDLFITLCFSKYQRDLELAKLIIEKLDFDNVLTVYQFTDLKFKFHKYLIEQSYSVDDRREDEQYDIILSIIQILFEKVSDENQKNFHALYQHLYNIALSCKVTSLDKIKVLHNLYNSKSIPLKIGFYHSFFYLDIKNTKLGRYYLFIRVDGLENDTFEHGMGYNGDIIPYFSLDVELCFDYICNNSYKDIFYLLRTVIMVQPLPGYNGSDYLNGTKKCTINLISTRGKVNPSNEYSYDDKSFCDQKQEEILYSLNQDIEYLSTFSQYNLVIRLLKDSMEASEIDSETLKDRTKSFLICGIDCKSLRKIINLGIKGLDFELLEQSFYELRLDLIECIMNNYSDSILKSGKRLKNDKHFLFQSNHLDIIGFIFENYIQLMPEFDLTWFEISFENGLIEMCLLILMFYPQQQIIITNDLLEKTIQNKNINIVKYFYNNYPSFKYLKLNIQSLIKKYYFLDYKYFDWILN
modifications: ubiquitinated lysine at 231
B2: Uncharacterized protein Q55C03 (DDB_G0270284), ubiquitinated at K373 (protein, UniProt Q55C03 23-390)
chain: SSMNQVTLDETTNYIFQWELIENDEILIILSANIKTWLGIGWGNEINGMSNADYAIGIFDNKGNLNMSDMVVTPTQKMNKPSYDTKVGGTNDILTSYGYQTSDYTYIKFTRKLVTGDLVGDRDLFVDGRMTTLIWARGSSQNLTYHGQNNRGEISIDLSGANKSVQVNNSKDVYLYWHISLMLGSFLVLMPFGIFVARYMRHYHYWFPLHYLLLGTAFTFSIVAFILAFMMTSDRKFSKHLLHAWFGLFTIILMCLVVIGGVMSHLLWKPDRKKTPIFPDIIHAFLARLTYLIALVSIWTGLNTFEIPKQFSIVLGFVVSLFFGLVIFLEIYRKRYPNSVGDHGFDKKEIKLQERNSSTVDSTININN
modifications: ubiquitinated lysine at 373
B3: Uncharacterized protein Q54WT5 (DDB_G0279449), ubiquitinated at K115 (protein, UniProt Q54WT5 1-1100)
chain: MTKGGKKPTAHKKVVSTFTIQEPEEFKDNTRELKAEAERVRQEGFRKIKEEKLQKEQALIREKQEAEAKKKLEEQEKLEQEQKKKQQEEEDKKRKQQEEEDKIKQQQLKKEEKEKEKAAAANPKSSKLDNKKEVEESKVVEISTQPTTTTTTTTNQVNNNSNNNNNNDISSPSTQLKKQNGKKVVKRKHSTQLSGFEISEPSSFDDEQFKIDNEDVIRLRTKFIKVTKPKKNKKNASKSGSPAIISSNTTSESVTPQNFAQENSPPTTTPATTQTQVTEKPKQQEEEKEEGEKEEPKPVVPEIKKIGIKSSPKAEQKPHYTIPKKNKQQQQPPKPTTNEAKPAGETKKSTGKKSPKQSITKNKSATFTIIEPSFGIQAPSSNTTTATPVEDSSSKTVDSTTTTTTTTSTATKTPAKPTPTQSKKKQNKKKPSTTNKSDDDIEGLLKQINDPKQRKVKQPTTTATPVVSKEDEAKKQKAAQESAEKKKLTDQNKKEAQEQEKLRVAEAKKVADAKKAADAEESKKAADAKKAADAEAKKAAEAKKAADAEAKKAADAKKAAADEEEAKKAADAKKAADAKKAADEEEAKKAADAKKVADAEAKKAADAKKAADEEEAKKAADAKKAAEEEEAKKAADIKKAAEDAKKAEDAKKAEDAKKAEEDRLEAEAEKKRLAEEQAKKEADAKKAEEDRLAAEAEKKRLEGEQAKRAEEDRLAAEAEKKRLADEAEKKRLADEAEKKEAEGKKAEEDRLAAEAEKKRLADEEAEKKAAESKKLAEEEEKKAVEAKRLADEEEEKRAAESKKLADEEQAKKAAQEEEEKKKLEEEEEKKKAASEQAEQKQVAEDSDKKKADEAEIRPLSHPTLSRPSKKSSSSLKLNRVETESEVEASKSEETKEEEKPEPEEEKPKVEYKPDFKPVGGIDIFGGAKINPAEVVLKKTTSSSNIIEHTPAPAPEEQGTFNFRSVLKNSKSSEKLSEFANGGSTTSSTTTTPSTGTPVKPTLSKSPSVVNNKSTTSIPIPTSSPVISPAAVTSMPSEAVGTYTYDELKNFKTNGINVDPSKLEIYLSDEEFTKVLGMSRTEYIKLPAWKQKNKKQDAKLF
modifications: ubiquitinated lysine at 115
B4: Uncharacterized protein Q54GX0 (DDB_G0289871), ubiquitinated at K2 (protein, UniProt Q54GX0 1-332)
chain: MKFFSFLSIGRATNVQSVMNTLTNENNKSFDLKSIDSFSLVDLSNQFISIKERIKFSKKELGDLLLFNKNVDGIIVAKNISLEKFDNIRNMFDDIPKVMLINGFVIITDLSVSKIHAFGLSYFLVQVGAYSLTSNYSLVGLNELSIAIPGNGFVQPDSCLLPKGRAQPNVDIPTVAFEMYYSKGVSYAVARARILFRISGIQYVLCICIRPRDPNNNNTFKCTALVFNGVISRENPVSIISFGTKPISQINENQYQTITVGVPAVGYKRTNPVQCNAPNLPMFLISIPSTIIFNGVPNPPANIPPALNLDLFILQSSFLEYVEDFTGNLHHQ
modifications: ubiquitinated lysine at 2

Molecular target: T1, PSMA4-GFP (20S proteasomal subunit PSMA4 with GFP fused C-terminally) (D. discoideum)
Test: affinity purification with mass spectrometry; GFP-trap beads, 2 h at 4 °C, with the soluble supernatant of lysates of AX2 and ATG16- cells expressing RFP-PSMD1 and PSMA4-GFP; cells without PSMA4-GFP as negative controls; three biological replicates; label-free quantification; GlyGly (K) and ubiquitination as variable modifications

Binder	binding
B1	binds
B2	binds
B3	binds
B4	binds

Results are given in words; binding and its absence hold for the method and conditions named. Binding seen in cells or lysates may run through a third protein. Here binding means that the protein was enriched with, or labelled near, the bait; the list need not be complete. Tags and fused reporters may be left off the sequences shown.
